Experimental data: PubChem BioAssay AID1259327 (Drosophila RNAi Screening Center, 2017)
Shown is an unselected part of about 3,100 deposited reagents. Of all reagents, 378 (12%) are marked active. 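Hits include both directions; z-score sign shows ATP rise or fall; raw luminescence values are not plate-normalised.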 The record does not give: the amount of reagent.

Screen: 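Baseline ATP after transmembrane-protein gene knock-down with water vehicle only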
Cell system: Drosophila S2R+ cells
Reagents: long dsRNA against Drosophila genes
Time to read-out: 5 days (water added on day 4, read one day later)
Challenge: water added as vehicle, no metal, one day before read-out
Measured: 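Luciferase ATP signal per well, normalised to plate mean, duplicate average converted to z-score across plates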
Reading the numbers: ATP z-score: higher = more total ATP than typical wells; ATP luminescence: higher = more total ATP
Call rule: 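a hit is any knock-down whose absolute ATP z-score is greater than 1.5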
Meaning of the calls: active = hit: ATP up or down; inactive = no clear ATP change

{"gene":"ppk23","dsRNA":"DRSC20110","ATP z-score, duplicate mean":0.338,"ATP luminescence, replicate 1 (RLU)":7.58e5,"ATP luminescence, replicate 2 (RLU)":8.01e5,"Outcome":"inactive"}
{"gene":"ppk23","dsRNA":"DRSC26441","ATP z-score, duplicate mean":-0.827,"ATP luminescence, replicate 1 (RLU)":9.54e5,"ATP luminescence, replicate 2 (RLU)":1.03e6,"Outcome":"inactive"}
{"gene":"Gr47a","dsRNA":"DRSC06221","ATP z-score, duplicate mean":-1.26,"ATP luminescence, replicate 1 (RLU)":5.12e5,"ATP luminescence, replicate 2 (RLU)":4.98e5,"Outcome":"inactive"}
{"gene":"Gr47a","dsRNA":"DRSC39508","ATP z-score, duplicate mean":0.0866,"ATP luminescence, replicate 1 (RLU)":4.84e5,"ATP luminescence, replicate 2 (RLU)":4.34e5,"Outcome":"inactive"}
{"gene":"Osi23","dsRNA":"DRSC15074","ATP z-score, duplicate mean":0.491,"ATP luminescence, replicate 1 (RLU)":5.07e5,"ATP luminescence, replicate 2 (RLU)":8.83e5,"Outcome":"inactive"}
{"gene":"GluRIB","dsRNA":"DRSC11177","ATP z-score, duplicate mean":1.65,"ATP luminescence, replicate 1 (RLU)":1.02e6,"ATP luminescence, replicate 2 (RLU)":1.19e6,"Outcome":"active"}
{"gene":"GluRIB","dsRNA":"DRSC25464","ATP z-score, duplicate mean":-0.508,"ATP luminescence, replicate 1 (RLU)":8.07e5,"ATP luminescence, replicate 2 (RLU)":7.67e5,"Outcome":"inactive"}
{"gene":"mthl9","dsRNA":"DRSC08506","ATP z-score, duplicate mean":-0.523,"ATP luminescence, replicate 1 (RLU)":6.44e5,"ATP luminescence, replicate 2 (RLU)":5.00e5,"Outcome":"inactive"}
{"gene":"mthl9","dsRNA":"DRSC39784","ATP z-score, duplicate mean":0.121,"ATP luminescence, replicate 1 (RLU)":4.55e5,"ATP luminescence, replicate 2 (RLU)":5.22e5,"Outcome":"inactive"}
{"gene":"Kr-h2","dsRNA":"DRSC03356","ATP z-score, duplicate mean":-0.394,"ATP luminescence, replicate 1 (RLU)":6.55e5,"ATP luminescence, replicate 2 (RLU)":7.13e5,"Outcome":"inactive"}
{"gene":"Kr-h2","dsRNA":"DRSC39752","ATP z-score, duplicate mean":-0.795,"ATP luminescence, replicate 1 (RLU)":4.04e5,"ATP luminescence, replicate 2 (RLU)":4.18e5,"Outcome":"inactive"}
{"gene":"CG5810","dsRNA":"DRSC21921","ATP z-score, duplicate mean":-1.74,"ATP luminescence, replicate 1 (RLU)":4.22e5,"ATP luminescence, replicate 2 (RLU)":4.43e5,"Outcome":"active"}
{"gene":"CG5810","dsRNA":"DRSC39633","ATP z-score, duplicate mean":-0.356,"ATP luminescence, replicate 1 (RLU)":4.52e5,"ATP luminescence, replicate 2 (RLU)":4.29e5,"Outcome":"inactive"}
{"gene":"Nrt","dsRNA":"DRSC11237","ATP z-score, duplicate mean":-0.395,"ATP luminescence, replicate 1 (RLU)":6.76e5,"ATP luminescence, replicate 2 (RLU)":7.02e5,"Outcome":"inactive"}
{"gene":"Or65c","dsRNA":"DRSC21312","ATP z-score, duplicate mean":-0.776,"ATP luminescence, replicate 1 (RLU)":4.52e5,"ATP luminescence, replicate 2 (RLU)":5.77e5,"Outcome":"inactive"}
{"gene":"Or65c","dsRNA":"DRSC39421","ATP z-score, duplicate mean":-1.84,"ATP luminescence, replicate 1 (RLU)":3.57e5,"ATP luminescence, replicate 2 (RLU)":3.06e5,"Outcome":"active"}

Next part, starting with the last 2 of the part before.
{"gene":"Or65c","dsRNA":"DRSC21312","ATP z-score, duplicate mean":-0.776,"ATP luminescence, replicate 1 (RLU)":4.52e5,"ATP luminescence, replicate 2 (RLU)":5.77e5,"Outcome":"inactive"}
{"gene":"Or65c","dsRNA":"DRSC39421","ATP z-score, duplicate mean":-1.84,"ATP luminescence, replicate 1 (RLU)":3.57e5,"ATP luminescence, replicate 2 (RLU)":3.06e5,"Outcome":"active"}
{"gene":"Ptr","dsRNA":"DRSC04852","ATP z-score, duplicate mean":0.107,"ATP luminescence, replicate 1 (RLU)":6.63e5,"ATP luminescence, replicate 2 (RLU)":5.96e5,"Outcome":"inactive"}
{"gene":"Ptr","dsRNA":"DRSC21517","ATP z-score, duplicate mean":0.536,"ATP luminescence, replicate 1 (RLU)":5.38e5,"ATP luminescence, replicate 2 (RLU)":7.13e5,"Outcome":"inactive"}
{"gene":"CG34109","dsRNA":"DRSC02225","ATP z-score, duplicate mean":-0.454,"ATP luminescence, replicate 1 (RLU)":7.01e5,"ATP luminescence, replicate 2 (RLU)":6.55e5,"Outcome":"inactive"}
{"gene":"CG34109","dsRNA":"DRSC26977","ATP z-score, duplicate mean":0.243,"ATP luminescence, replicate 1 (RLU)":1.04e6,"ATP luminescence, replicate 2 (RLU)":8.71e5,"Outcome":"inactive"}
{"gene":"CG34109","dsRNA":"DRSC30104","ATP z-score, duplicate mean":-1.02,"ATP luminescence, replicate 1 (RLU)":5.19e5,"ATP luminescence, replicate 2 (RLU)":4.67e5,"Outcome":"inactive"}
{"gene":"Eph","dsRNA":"DRSC17164","ATP z-score, duplicate mean":-0.113,"ATP luminescence, replicate 1 (RLU)":8.47e5,"ATP luminescence, replicate 2 (RLU)":8.01e5,"Outcome":"inactive"}
{"gene":"Eph","dsRNA":"DRSC36767","ATP z-score, duplicate mean":-0.817,"ATP luminescence, replicate 1 (RLU)":5.52e5,"ATP luminescence, replicate 2 (RLU)":4.68e5,"Outcome":"inactive"}
{"gene":"Eph","dsRNA":"DRSC36768","ATP z-score, duplicate mean":-0.319,"ATP luminescence, replicate 1 (RLU)":5.37e5,"ATP luminescence, replicate 2 (RLU)":5.68e5,"Outcome":"inactive"}
